Laboratory results: PubChem BioAssay AID1259254 (NCATS, 2017)

- Purpose: 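Genome-wide screen for genes that prevent DNA re-replication in cancer cells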 (primary screen)
- Cell system: human HCT116 colorectal cancer cells
- Knock-down reagent: single siRNA against human genes
- Duration: 3 days
- Measured: 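Imaged Hoechst DNA stain sorts each cell into a cycle phase by DNA amount; per plate, G2 fraction set to 0% for non-targeting and 100% for GMNN siRNA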
- Scale: G2 robust z-score and G2 cells, % of GMNN control: higher = more G2 cells, more excess DNA replication
- Hit rule: 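An siRNA counts as active if its G2 robust z-score lies at least 5 MADs above the screen median; here such calls match roughly 38% of GMNN control or more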
Here is a random part of about 59,000 reagents. Over the whole deposit, about 1,550 (2.6%) are marked active. 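G2 share is only a proxy for re-replication; each gene was hit by three separate siRNAs, and active genes were retested.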 Reagents against one gene are numbered here. Further read-outs or replicates are left out here. Not stated in the record: the amount of reagent.

AGFG1 #1 → G2 robust z-score = -0.774; G2 cells, % of GMNN control = -2.48; activity call = inactive
AGFG1 #2 → G2 robust z-score = -0.881; G2 cells, % of GMNN control = -3.23; activity call = inactive
AGFG1 #3 → G2 robust z-score = 7.92; G2 cells, % of GMNN control = 58.7; activity call = active
ELF3 #1 → G2 robust z-score = 6.39; G2 cells, % of GMNN control = 47.9; activity call = active
ELF3 #2 → G2 robust z-score = 6.95; G2 cells, % of GMNN control = 51.8; activity call = active
ELF3 #3 → G2 robust z-score = 2.06; G2 cells, % of GMNN control = 17.5; activity call = inactive
ANP32D #1 → G2 robust z-score = 0.025; G2 cells, % of GMNN control = 3.14; activity call = inactive
ANP32D #2 → G2 robust z-score = 3.88; G2 cells, % of GMNN control = 30.2; activity call = inactive
ANP32D #3 → G2 robust z-score = -0.582; G2 cells, % of GMNN control = -1.13; activity call = inactive
IL33R #1 → G2 robust z-score = -1.08; G2 cells, % of GMNN control = -4.65; activity call = inactive
IL33R #2 → G2 robust z-score = -0.276; G2 cells, % of GMNN control = 1.03; activity call = inactive
IL33R #3 → G2 robust z-score = 0.879; G2 cells, % of GMNN control = 9.15; activity call = inactive

Records listed so far whose target name begins with E or e (3):
ELF3 #1 → G2 robust z-score = 6.39; G2 cells, % of GMNN control = 47.9; activity call = active
ELF3 #2 → G2 robust z-score = 6.95; G2 cells, % of GMNN control = 51.8; activity call = active
ELF3 #3 → G2 robust z-score = 2.06; G2 cells, % of GMNN control = 17.5; activity call = inactive
